Measured values taken from US5041535A (Richter Gedeon Vegyeszeti Gyar Rt., priority 1986, dated 1991).

Experiment: general procedure: solution-phase peptide synthesis; active ester (OPfp) and/or mixed anhydride

With Lys-Glu-Lys-Lys-diacetate the step yield (late stage modification step, diacetate) was 88%.
Work on Glp-Lys-NH2 yielded an isolated yield (whole synthesis, related to the Lys(Z)-ONB.HCl starting material, acid addition salts) of 62%.
